Test: general procedure: Fmoc solid-phase peptide synthesis; 2-chlorotrityl chloride resin; HCTU (SPPS); DIC/DMAP (esterification); HBTU/HOBt (macrolactamization)
Settings: whole synthesis, TFA salt; for isolated yield: scale of the general procedure 0.09 mmol

Substance	isolated mass [mg]	isolated yield [%]
L-Thr8,Arg10-teixobactin	4.7	3.6
D-allo-Ile11,Arg10-teixobactin	13.2	10.0

From patent publication US11046730B2 (The Regents of the University of California, priority 2016, dated 2021)
